According to paper PMC9898070:
Results are given in words; binding and its absence hold for the method and conditions named. Binding seen in cells or lysates may run through a third protein. Some entries that bind do so weakly or less than the wild type. For part of these data: Where a sequence is shown, tags or fusion partners need not be part of it.

Protein sequences, listed by entry. Tags and fused reporters are not part of them.
UniProt Q16665: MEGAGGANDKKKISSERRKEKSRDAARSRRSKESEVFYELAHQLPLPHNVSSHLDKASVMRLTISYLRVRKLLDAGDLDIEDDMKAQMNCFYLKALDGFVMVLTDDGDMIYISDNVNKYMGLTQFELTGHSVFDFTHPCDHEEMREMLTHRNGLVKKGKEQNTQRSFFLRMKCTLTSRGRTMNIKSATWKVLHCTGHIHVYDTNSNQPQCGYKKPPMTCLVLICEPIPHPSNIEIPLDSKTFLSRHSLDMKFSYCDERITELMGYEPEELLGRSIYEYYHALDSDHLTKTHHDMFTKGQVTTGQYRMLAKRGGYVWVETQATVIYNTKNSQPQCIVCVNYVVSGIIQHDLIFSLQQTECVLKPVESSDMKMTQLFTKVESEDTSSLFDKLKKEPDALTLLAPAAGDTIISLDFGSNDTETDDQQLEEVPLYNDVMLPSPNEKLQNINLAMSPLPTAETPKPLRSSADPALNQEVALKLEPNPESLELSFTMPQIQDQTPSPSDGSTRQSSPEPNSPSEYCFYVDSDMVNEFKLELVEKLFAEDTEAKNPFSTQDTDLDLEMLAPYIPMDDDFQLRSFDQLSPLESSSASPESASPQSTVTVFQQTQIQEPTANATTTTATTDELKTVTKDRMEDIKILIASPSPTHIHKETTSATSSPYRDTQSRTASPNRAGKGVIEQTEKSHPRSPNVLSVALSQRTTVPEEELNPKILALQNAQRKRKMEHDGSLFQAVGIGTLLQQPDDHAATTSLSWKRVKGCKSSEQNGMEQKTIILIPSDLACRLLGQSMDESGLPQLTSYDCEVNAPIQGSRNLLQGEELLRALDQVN

What was measured:
[1] = target: T1, FLAG-tagged human whole L3MBTL3 (human) (UniProt Q96JM7); experiment: co-IP; 293T cells transfected with HA-HIF-1α and Flag-tagged wild-type L3MBTL3 or deletion mutants; lysates precipitated with anti-Flag (M2) beads
T1 sequence: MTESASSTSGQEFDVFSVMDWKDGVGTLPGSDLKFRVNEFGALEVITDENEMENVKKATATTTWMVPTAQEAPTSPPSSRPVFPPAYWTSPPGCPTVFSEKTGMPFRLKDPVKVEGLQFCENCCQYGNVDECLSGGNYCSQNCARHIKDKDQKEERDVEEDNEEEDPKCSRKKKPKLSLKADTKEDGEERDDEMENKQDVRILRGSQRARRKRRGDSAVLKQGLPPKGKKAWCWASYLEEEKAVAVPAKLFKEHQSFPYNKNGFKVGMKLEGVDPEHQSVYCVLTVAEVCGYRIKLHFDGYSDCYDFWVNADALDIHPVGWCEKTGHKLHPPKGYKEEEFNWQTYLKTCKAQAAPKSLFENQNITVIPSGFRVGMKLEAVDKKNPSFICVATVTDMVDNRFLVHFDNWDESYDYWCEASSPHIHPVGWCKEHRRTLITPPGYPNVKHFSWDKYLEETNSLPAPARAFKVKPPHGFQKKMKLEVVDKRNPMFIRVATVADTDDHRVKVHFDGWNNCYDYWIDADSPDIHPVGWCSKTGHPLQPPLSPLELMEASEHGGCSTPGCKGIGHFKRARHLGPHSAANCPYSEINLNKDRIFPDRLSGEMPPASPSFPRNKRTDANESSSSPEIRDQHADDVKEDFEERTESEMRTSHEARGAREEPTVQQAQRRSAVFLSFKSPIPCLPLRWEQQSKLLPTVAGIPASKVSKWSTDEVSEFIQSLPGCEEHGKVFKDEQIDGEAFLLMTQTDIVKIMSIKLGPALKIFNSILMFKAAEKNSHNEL

[2] = target: T1, FLAG-tagged human whole L3MBTL3 (human); experiment: co-IP; HepG2 cells transfected with Flag-L3MBTL3 and HA-HIF-1α, normoxia or hypoxia (1% O2) 12 h; lysates precipitated with anti-Flag beads, 6 h at 4 °C
[3] = target: T2, endogenous L3MBTL3 (human (endogenous in HepG2)) (UniProt Q96JM7); experiment: co-IP; endogenous proteins; hypoxia cultured HepG2 cells, nucleus and cytoplasm separated; precipitated with IgG, anti-L3MBTL3 or anti-HIF-1α antibodies and protein G
T2 sequence: T1 sequence

HA-tagged human whole HIF-1α (from UniProt Q16665 1-826)
binding [1]: binds
binding [2]: binds

endogenous HIF-1α (from UniProt Q16665 1-826)
binding [3]: binds
